Primary screen of a compound library

Measurements from “University of Dundee, Small-Polar-MMV Screening Library” (2021), ChEMBL document CHEMBL3988442.

Values are the deposited “Percent Effect”, in %. How 0% and 100% were set is not recorded. Most values in the screen are low, and negative values occur. This is an unselected part of the compounds tested. A dash means the value is not listed here; it may have been measured.

Mtb growth Cornell: 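Whole-cell assay for inhibitors of Mycobacterium tuberculosis growth, labelled Cornell in the record; the read-out is not stated. The concentration is filed as 10 mM, unlikely as a test dose, so the dose is not known. Higher means stronger inhibition (inferred from two other growth screens of the library). About 53,000 compounds were tested under these conditions; 1.7% (about 900) showed 50% or more at least once.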
Mtb heat-shock: 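Assay on Mycobacterium tuberculosis, filed only as a heat shock assay from Cornell; the read-out is not stated. The concentration is filed as 10 mM, unlikely as a test dose, so the dose is not known. The record gives no direction; compounds that gave an IC50 in retests scored well above the rest, so higher reads as stronger inhibition. Of about 69,000 compounds tested this way, about 930 (1.4%) reached 50% or more in at least one test.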

| # | compound | Mtb growth Cornell | Mtb heat-shock |
|---|---|---|---|
| 1 | `[H][C@@]12CN(C(=O)COC)C[C@]1([H])OCCN2Cc1c(C)noc1C` | -0.2298% | -6.863% |
| 2 | `COCC(=O)N1CCC(c2csc(NC(C)=O)n2)CC1` | -32.3% | 9.16% |
| 3 | `CCOc1ccnc(N2CCN(C(=O)c3ccn(C)c(=O)c3)CC2)n1` | -7.798% | -10.51% |
| 4 | `CC(=O)N1CCCN(C(=O)CCc2c(C)nc3ccnn3c2C)CC1` | -36.94% | 4.937% |
| 5 | `COc1ncnc2c1CCN(C(=O)NCc1cccnc1)CC2.O=C(O)C(F)(F)F` | 8.451% | -18.52% |
| 6 | `CCc1nc(CN(C)C2CCN(Cc3cnc(C)cn3)C2)no1` (stereo unspecified) | -78.92% | 1.238% |
| 7 | `Cc1nn(C)c(Cl)c1S(=O)(=O)N(CC(N)=O)CC(C)C` | - | -8.095% |
| 8 | `COc1ccccc1CNc1cnn(CC(F)F)c1` | 5.374% | -5.996% |
| 9 | `COCCOc1ccc(CNc2nc3ccccc3nc2N)cn1` | 25.22% | -18.49% |
| 10 | `CCN(Cc1ccc2c(c1)OCO2)C(=O)NC(C)Cn1cccn1` (stereo unspecified) | 12.72% | 1.363% |
| 11 | `Cc1nc(C2CCN(S(=O)(=O)c3ccc4c(c3)CCO4)CC2)n[nH]1` | 25.09% | 8.118% |
| 12 | `O=C(O)C(F)(F)F.O=C(O)C(F)(F)F.[H][C@@]12C[C@@H](Oc3cccc(F)c3)CN1CCN(Cc1nccn1C)C2` | -3.507% | -19.18% |
| 13 | `Cn1ncnc1NCc1ccccc1Cl` | -6.671% | -59.21% |
| 14 | `CCCc1cc(C(=O)N(C)Cc2ccc(OC)c3ncccc23)n(C)n1` | -11.8% | -13.45% |
| 15 | `CC(O)(CCc1ccccc1)CNC(=O)c1ccc(F)cc1` (stereo unspecified) | -45.56% | 12.4% |
| 16 | `[H][C@@]12CCN(Cc3ccncc3)C[C@]1([H])[C@@H](CNc1ncccn1)OC2` | -19.7% | -5.664% |
| 17 | `CCc1nnc(CSc2ccccn2)o1` | - | 0.1559% |
| 18 | `Cc1nn(C)c2nc(N(Cc3cnn(C)c3)C3CCCCC3)sc12` | 56.52% | -10.68% |
| 19 | `Cc1ccccc1C(NC(=O)NCC1(CO)CC1)C1CC1` (stereo unspecified) | - | 3.283% |
| 20 | `F[C@@H]1CN(CC2CC2)C[C@@H]1OCc1nc2cnccc2[nH]1` | -2.725% | -31.05% |
| 21 | `CCn1c(CN2CCC(O)(c3ccc4c(c3)OCO4)CC2)cnc1SC.O=C(O)CC(O)(CC(=O)O)C(=O)O` | 0.4366% | -5.065% |
| 22 | `CN(C)S(=O)(=O)c1ccc(CN2CCCC2c2ccccc2)o1` (stereo unspecified) | 15.21% | -14.2% |
| 23 | `Cc1nc2c(c(N3CCCC(OCc4ccccn4)C3)n1)CCNCC2` (stereo unspecified) | - | 8.646% |
| 24 | `COc1ccc(-c2ccc(C(=O)O)c(F)c2)c(F)c1` | -5.389% | -23.72% |
| 25 | `CC(=O)NCCC(=O)NCc1cc(Br)ccc1OC(F)F` | -7.353% | -12.56% |
| 26 | `[H][C@@]12CCN(Cc3nccs3)C[C@]1([H])[C@@H](CN(C)Cc1ccco1)OC2` | 12.16% | 27.26% |
| 27 | `CC1=Nc2c(c(=O)[nH]n2C(C)C)C(c2ccccc2)S1` (stereo unspecified) | - | -8.873% |
| 28 | `COc1ccc(Nc2ccc(C#N)cn2)cc1N1CCCC1=O` | -6.033% | -30.54% |
| 29 | `Cc1ccc(-c2cccc(-c3ccn(CCN4CCCC4)n3)c2)nn1` | - | 3.457% |
| 30 | `c1ccc2oc(CN3CCCC3Cn3cncn3)nc2c1` (stereo unspecified) | 14.13% | -4.59% |
| 31 | `CC(C)c1ccc(OCC(=O)N(C)C)cc1` | 0.3524% | 12.68% |
| 32 | `CCc1cc(N(C)CCc2c(C)n[nH]c2C)ncn1` | -39.46% | -14.33% |
| 33 | `Cc1nn(C)c(C)c1C1CCCN1Cc1nc(C)c2ccccc2n1` (stereo unspecified) | - | 19.02% |
| 34 | `O=C(Nc1ccncc1)C1=NN(c2ccccc2)C(=O)CN1` | - | -0.5388% |
| 35 | `[H][C@@]12CN(Cc3cccc(-c4ccccc4C)c3)C[C@]1(C(=O)O)CNC2=O` | - | -47.41% |
| 36 | `c1cnn(CC2CCCN2Cc2cn3ccsc3n2)c1` (stereo unspecified) | - | -3.073% |
| 37 | `Cc1cccc(CN2CCc3nnc(CN(C)C)n3CC2)n1` | 27.53% | -7.089% |
| 38 | `CC(C)c1nnc(NCc2cc3n(n2)CCN(C2CCCCC2)C3)s1` | - | 1.501% |
| 39 | `COc1ccccc1CC1CCCN(C(=O)c2n[nH]c3c2CCC3)C1` (stereo unspecified) | - | -26.75% |
| 40 | `Cc1nc2cc(=O)[nH]n2c(C)c1CNC(=O)c1cnn(C(C)(C)C)c1` | - | -9.273% |
| 41 | `COC(=O)CCNC(=O)C1CC(=O)N(C2CCCC2)C1` (stereo unspecified) | 7.955% | 6.666% |
| 42 | `O=c1cnc2ccccc2n1CCCn1ccnc1` | -10.49% | -18.74% |
| 43 | `Cc1cc(C2CCCN2C(=O)NCc2cccc(F)c2)on1` (stereo unspecified) | 27.91% | -0.3086% |
| 44 | `CCCN1CCC(N(C)C(=O)c2cc(C)nc3cc(F)ccc23)CC1` | -20.77% | 8.663% |
| 45 | `Oc1ccccc1CN1CCC(n2cc(-c3ccc(F)cc3)nn2)CC1` | 44.09% | -19.27% |
| 46 | `CC(C(=O)N1CCOCC1)n1cncn1` (stereo unspecified) | -72.07% | 0.1148% |
| 47 | `COCCNC(=O)CCNC(=O)c1ccc(N2CCC(C)=N2)cc1` | -25.17% | -2.482% |
| 48 | `C=C(C)COc1ccccc1CNCCc1c[nH]cn1` | -9.155% | -30.45% |
| 49 | `[H][C@]12CC[C@](C(=O)N3CCC(n4cc(CCO)nn4)CC3)(C1)C(=C)C2(C)C` | 21.92% | -7.185% |
| 50 | `O=C(NCC(O)c1cccs1)c1ccco1` (stereo unspecified) | -50.74% | 17.38% |
| 51 | `COc1ccc(CCC(=O)N2CCCCC2Cn2cccn2)cc1F` (stereo unspecified) | - | -21.55% |
| 52 | `CC(C)(C)n1ncc2c1CCCC2NCc1ccc2ncccc2c1` (stereo unspecified) | - | -2.363% |
| 53 | `COC(=O)c1cc(OCC2CCC2)cc(C(=O)N[C@H]2CCCC[C@@H]2O)c1` | 13.96% | 14.13% |
| 54 | `COC1CCCN(Cc2cc(O)c3cc(C)cc(C)c3n2)C1` (stereo unspecified) | - | -8.771% |
| 55 | `[H][C@@]12CCN(Cc3c(C)noc3C)C[C@@]1([H])O[C@@H](c1ccncn1)C2` | 13.73% | -30.01% |
| 56 | `N#Cc1cccnc1NCCc1cc(F)cc2c1OCOC2` | - | -5.656% |
| 57 | `CCn1ccnc1CN(C)C1CCCN(Cc2ccccc2F)C1` (stereo unspecified) | 0.1948% | -25.4% |
| 58 | `COc1ccnc(NC(=O)c2cnccn2)c1` | 9.023% | -17.48% |
| 59 | `O=C(Cn1nc(-c2ccc(F)cc2)oc1=O)NCCc1ccccc1` | - | -33.45% |
| 60 | `COCc1nc2cc3c(cc2c(=O)o1)OCCCO3` | - | -107.1% |
| 61 | `Cc1cc(=O)n(C)cc1NC(=O)Cc1ccc(C(F)(F)F)cc1` | 22.35% | 9.481% |
| 62 | `Cc1nn(C)c(Cl)c1C1CCCN1C(=O)c1ccc(C(N)=O)cn1` (stereo unspecified) | -9.672% | -15.15% |
| 63 | `O=C1CCCN1CCCC(=O)N1CCCC(Cc2cccnc2)C1` (stereo unspecified) | - | -5.058% |
| 64 | `CCNc1ncc(C(=O)N2CCOC(CCCC(C)C)C2)cn1` (stereo unspecified) | 19.45% | 101.8% |
| 65 | `CCOC1CCCN(C(=O)c2[nH]nc(C(C)C)c2Br)C1` (stereo unspecified) | -19.72% | 0.877% |
| 66 | `Cc1cc(C)n(-c2cncc(NCCNS(C)(=O)=O)n2)n1` | 14.8% | 12.64% |
| 67 | `O=C1NCC(CN2CCc3onc(-c4ccc(C(F)(F)F)cc4)c3C2)O1` (stereo unspecified) | 13.54% | 6.874% |
| 68 | `[H][C@@]12CCCCCN(C)[C@@]1([H])[C@H](c1ccccc1)CN2C(=O)c1ccccn1` | -7.343% | -3.572% |
| 69 | `CCN1CCOCC2(C1)CN(C(=O)c1c(C)noc1C)CCO2` (stereo unspecified) | -10.47% | 22.76% |
| 70 | `NC(=O)C(NCc1cccs1)c1ccccc1` (stereo unspecified) | 10.81% | 7.961% |
| 71 | `O=C(NCCc1c[nH]cn1)c1ccc2c(c1)C(=O)N(C1CC1)C2=O` | - | -4.323% |
| 72 | `CN(C)CC1(O)CCCN(C(=O)Cn2ccc3ccccc32)CC1` (stereo unspecified) | - | -157.9% |
| 73 | `O=C(NCC(O)CN1CCc2ccccc2C1)Nc1cccnc1` (stereo unspecified) | - | -5.485% |

Repeated from the top, 7 entries:

| compound | Mtb growth Cornell | Mtb heat-shock |
|---|---|---|
| `[H][C@@]12CN(C(=O)COC)C[C@]1([H])OCCN2Cc1c(C)noc1C` | -0.2298% | -6.863% |
| `COCC(=O)N1CCC(c2csc(NC(C)=O)n2)CC1` | -32.3% | 9.16% |
| `CCOc1ccnc(N2CCN(C(=O)c3ccn(C)c(=O)c3)CC2)n1` | -7.798% | -10.51% |
| `CC(=O)N1CCCN(C(=O)CCc2c(C)nc3ccnn3c2C)CC1` | -36.94% | 4.937% |
| `COc1ncnc2c1CCN(C(=O)NCc1cccnc1)CC2.O=C(O)C(F)(F)F` | 8.451% | -18.52% |
| `CCc1nc(CN(C)C2CCN(Cc3cnc(C)cn3)C2)no1` (stereo unspecified) | -78.92% | 1.238% |
| `Cc1nn(C)c(Cl)c1S(=O)(=O)N(CC(N)=O)CC(C)C` | - | -8.095% |